# Measured values published in article PMC2607300.
# By UniProt entry, the sequences of proteins in these tests, tags left out. Where a name states a change or a piece, a line headed by the entry shows the natural chain unless it says otherwise.
# UniProt A0A1D8PU46: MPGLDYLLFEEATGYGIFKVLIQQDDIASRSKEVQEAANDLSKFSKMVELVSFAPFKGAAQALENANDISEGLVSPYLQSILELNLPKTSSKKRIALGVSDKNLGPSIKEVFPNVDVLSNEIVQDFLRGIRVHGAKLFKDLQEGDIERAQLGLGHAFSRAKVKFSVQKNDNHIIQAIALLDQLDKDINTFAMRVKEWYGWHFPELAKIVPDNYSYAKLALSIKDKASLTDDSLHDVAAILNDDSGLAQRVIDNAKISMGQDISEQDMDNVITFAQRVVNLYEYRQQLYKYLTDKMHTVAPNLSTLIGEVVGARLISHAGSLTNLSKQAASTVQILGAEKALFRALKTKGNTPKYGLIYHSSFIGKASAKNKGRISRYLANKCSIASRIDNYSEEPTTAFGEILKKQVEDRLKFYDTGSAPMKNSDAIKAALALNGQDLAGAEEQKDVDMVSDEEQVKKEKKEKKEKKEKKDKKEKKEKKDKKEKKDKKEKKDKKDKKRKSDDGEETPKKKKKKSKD
# UniProt A0A1D8PJD3: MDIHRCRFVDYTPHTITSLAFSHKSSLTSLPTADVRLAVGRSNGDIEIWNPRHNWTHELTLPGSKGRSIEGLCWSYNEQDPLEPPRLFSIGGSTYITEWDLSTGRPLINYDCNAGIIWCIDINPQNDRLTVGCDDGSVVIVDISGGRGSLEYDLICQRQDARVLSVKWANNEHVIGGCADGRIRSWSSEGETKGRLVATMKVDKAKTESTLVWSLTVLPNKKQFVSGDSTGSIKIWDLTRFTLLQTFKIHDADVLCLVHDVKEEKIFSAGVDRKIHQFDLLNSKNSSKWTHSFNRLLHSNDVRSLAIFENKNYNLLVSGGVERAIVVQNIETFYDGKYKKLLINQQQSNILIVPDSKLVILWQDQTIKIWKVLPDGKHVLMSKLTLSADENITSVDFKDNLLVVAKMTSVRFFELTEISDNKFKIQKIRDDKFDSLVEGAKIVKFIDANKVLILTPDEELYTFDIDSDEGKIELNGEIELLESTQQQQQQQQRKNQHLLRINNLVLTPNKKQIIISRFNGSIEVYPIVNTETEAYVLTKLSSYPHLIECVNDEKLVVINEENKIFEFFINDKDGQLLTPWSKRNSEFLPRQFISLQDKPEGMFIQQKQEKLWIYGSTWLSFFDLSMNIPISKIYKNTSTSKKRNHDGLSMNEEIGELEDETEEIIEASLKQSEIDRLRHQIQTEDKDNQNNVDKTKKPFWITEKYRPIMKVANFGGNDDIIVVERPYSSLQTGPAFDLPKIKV
# UniProt A0A1D8PU59: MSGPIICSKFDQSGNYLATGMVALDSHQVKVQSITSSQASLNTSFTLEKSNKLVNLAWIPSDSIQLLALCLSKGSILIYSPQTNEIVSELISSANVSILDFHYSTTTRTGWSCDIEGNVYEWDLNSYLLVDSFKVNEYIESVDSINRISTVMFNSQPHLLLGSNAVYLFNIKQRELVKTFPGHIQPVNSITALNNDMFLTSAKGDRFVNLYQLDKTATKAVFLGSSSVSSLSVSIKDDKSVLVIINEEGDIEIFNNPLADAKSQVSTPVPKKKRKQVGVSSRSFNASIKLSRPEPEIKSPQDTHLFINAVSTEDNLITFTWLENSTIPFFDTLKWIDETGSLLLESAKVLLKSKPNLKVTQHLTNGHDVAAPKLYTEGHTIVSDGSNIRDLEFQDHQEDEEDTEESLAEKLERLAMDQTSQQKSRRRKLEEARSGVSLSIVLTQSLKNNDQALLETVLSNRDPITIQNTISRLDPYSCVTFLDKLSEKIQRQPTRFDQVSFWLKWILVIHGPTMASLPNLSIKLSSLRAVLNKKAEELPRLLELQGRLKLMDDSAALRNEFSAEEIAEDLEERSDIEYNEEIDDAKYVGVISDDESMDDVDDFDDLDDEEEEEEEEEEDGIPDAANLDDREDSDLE
# UniProt A0A1D8PGP2: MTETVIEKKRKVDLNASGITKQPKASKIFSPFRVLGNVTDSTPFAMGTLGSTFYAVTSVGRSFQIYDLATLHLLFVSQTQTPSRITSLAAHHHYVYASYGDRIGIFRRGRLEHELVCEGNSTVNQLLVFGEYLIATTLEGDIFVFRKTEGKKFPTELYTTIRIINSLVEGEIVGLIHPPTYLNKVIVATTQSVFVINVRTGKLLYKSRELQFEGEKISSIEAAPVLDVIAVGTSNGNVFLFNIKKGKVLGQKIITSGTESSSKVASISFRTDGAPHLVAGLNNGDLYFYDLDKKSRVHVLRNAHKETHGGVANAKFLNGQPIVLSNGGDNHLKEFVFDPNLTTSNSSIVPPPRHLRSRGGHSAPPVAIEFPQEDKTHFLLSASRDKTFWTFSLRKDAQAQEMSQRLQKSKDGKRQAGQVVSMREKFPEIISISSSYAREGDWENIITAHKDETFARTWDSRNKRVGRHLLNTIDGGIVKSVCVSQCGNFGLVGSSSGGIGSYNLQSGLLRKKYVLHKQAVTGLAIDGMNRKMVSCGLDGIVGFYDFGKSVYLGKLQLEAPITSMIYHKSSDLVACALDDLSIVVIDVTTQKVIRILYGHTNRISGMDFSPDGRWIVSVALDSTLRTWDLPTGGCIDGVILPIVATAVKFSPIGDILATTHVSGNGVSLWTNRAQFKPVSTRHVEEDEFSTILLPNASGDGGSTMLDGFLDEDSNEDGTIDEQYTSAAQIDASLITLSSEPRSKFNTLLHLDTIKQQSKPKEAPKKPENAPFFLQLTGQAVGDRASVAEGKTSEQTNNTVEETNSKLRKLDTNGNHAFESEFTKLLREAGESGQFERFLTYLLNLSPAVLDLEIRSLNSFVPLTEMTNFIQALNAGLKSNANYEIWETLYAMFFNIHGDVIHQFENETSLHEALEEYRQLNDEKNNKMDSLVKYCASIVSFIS
# UniProt A0A1D8PIX3: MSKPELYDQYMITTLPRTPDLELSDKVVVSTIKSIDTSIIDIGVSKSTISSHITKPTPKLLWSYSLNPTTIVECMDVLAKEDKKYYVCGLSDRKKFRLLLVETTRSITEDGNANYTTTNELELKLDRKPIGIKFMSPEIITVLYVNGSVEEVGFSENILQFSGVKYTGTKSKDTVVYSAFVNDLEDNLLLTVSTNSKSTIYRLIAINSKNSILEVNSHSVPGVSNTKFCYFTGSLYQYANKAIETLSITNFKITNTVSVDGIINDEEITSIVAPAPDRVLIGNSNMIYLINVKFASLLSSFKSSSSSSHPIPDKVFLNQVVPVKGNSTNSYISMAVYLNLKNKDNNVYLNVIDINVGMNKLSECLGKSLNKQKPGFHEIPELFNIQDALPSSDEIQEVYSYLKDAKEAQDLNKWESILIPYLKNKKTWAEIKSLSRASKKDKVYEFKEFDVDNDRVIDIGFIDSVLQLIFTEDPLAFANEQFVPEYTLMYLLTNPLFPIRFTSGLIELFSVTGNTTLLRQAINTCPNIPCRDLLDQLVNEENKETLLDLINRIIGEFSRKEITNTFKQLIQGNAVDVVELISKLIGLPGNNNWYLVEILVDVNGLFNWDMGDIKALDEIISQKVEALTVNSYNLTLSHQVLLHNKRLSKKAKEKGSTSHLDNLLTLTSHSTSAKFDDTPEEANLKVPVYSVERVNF
# UniProt A0A1D8PNG5: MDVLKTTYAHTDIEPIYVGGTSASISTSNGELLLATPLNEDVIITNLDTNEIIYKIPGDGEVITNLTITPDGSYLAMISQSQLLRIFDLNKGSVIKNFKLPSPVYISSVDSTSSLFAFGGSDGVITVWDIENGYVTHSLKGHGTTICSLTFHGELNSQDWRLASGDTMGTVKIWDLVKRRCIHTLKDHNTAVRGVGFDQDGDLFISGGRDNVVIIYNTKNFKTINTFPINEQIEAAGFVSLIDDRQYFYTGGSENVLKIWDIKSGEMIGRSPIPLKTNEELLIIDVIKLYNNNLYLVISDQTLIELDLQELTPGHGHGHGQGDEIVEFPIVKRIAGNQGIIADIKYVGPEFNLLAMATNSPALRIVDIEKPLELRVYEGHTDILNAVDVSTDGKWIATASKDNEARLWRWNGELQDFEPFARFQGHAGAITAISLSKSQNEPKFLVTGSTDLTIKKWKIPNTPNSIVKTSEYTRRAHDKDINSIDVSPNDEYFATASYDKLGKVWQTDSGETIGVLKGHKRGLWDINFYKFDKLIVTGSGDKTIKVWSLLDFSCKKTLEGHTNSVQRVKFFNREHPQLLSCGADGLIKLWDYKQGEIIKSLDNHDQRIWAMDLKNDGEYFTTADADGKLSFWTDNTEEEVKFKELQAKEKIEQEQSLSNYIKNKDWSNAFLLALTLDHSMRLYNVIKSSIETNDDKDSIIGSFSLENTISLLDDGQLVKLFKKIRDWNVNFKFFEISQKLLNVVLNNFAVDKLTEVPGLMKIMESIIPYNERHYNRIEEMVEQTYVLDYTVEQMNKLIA
# UniProt A0A1D8PRJ5: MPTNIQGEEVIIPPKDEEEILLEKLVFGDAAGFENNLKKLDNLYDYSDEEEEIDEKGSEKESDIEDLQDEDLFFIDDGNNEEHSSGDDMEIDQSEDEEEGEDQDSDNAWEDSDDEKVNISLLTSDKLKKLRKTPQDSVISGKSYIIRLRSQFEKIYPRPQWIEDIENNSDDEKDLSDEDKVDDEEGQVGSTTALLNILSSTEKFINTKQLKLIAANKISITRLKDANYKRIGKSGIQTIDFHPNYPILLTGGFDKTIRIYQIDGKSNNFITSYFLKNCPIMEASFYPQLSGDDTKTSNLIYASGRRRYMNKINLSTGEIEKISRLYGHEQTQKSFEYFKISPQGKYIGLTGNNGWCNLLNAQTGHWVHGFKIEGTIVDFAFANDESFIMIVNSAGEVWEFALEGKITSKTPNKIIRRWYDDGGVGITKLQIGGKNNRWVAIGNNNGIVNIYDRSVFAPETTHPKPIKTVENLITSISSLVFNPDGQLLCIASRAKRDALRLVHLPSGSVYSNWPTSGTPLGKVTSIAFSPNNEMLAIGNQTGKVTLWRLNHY
# Results are given in words; binding and its absence hold for the method and conditions named. In cells and extracts the contact can be indirect. These calls come from enrichment with a bait or labelling near it, and not all partners need be listed.
# T1: Nop1-TAP (C. albicans) (UniProt Q5A0V9)
# T1 sequence: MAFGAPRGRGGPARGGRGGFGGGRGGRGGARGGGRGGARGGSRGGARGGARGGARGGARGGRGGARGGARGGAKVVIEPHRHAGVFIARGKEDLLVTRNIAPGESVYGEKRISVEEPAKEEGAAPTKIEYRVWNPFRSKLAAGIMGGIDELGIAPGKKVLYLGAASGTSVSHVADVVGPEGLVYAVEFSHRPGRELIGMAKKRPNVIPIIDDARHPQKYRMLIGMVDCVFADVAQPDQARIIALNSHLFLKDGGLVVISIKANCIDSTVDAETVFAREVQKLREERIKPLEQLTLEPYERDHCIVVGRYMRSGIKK
# Target: T1, Nop1-TAP (C. albicans)
# Test: affinity purification with mass spectrometry; Nop1-TAP as bait, standard tandem affinity purification from C. albicans; TCA precipitate digested with trypsin in solution, or in-gel digestion of SYPRO Ruby stained SDS-PAGE bands; nanoLC LTQ-Orbitrap, Mascot search
row,Molecule,binding
1,Nop5 (C. albicans),binds
2,Sik1 (from UniProt A0A1D8PU46 1-516),binds
3,Utp4 (from UniProt A0A1D8PJD3 1-743),binds
4,Utp5 (from UniProt A0A1D8PU59),binds
5,Utp21 (from UniProt A0A1D8PGP2 1-942),binds
6,"Rrp9 (protein, UniProt Q5A213 1-549) MAGDPFLSDPSKKRKRSNKLTSKTKRSKSSTPTPTPTPTPNTNHQDDDISSGSDSENGHANGTNENDHGDNESELSSDEEFADETVNDKRRRLAKQYLENLKQNEHELYDEFDAKDLDDDILARRLQKDIAETKGYVYKFVGDKIKDQLDEEYPLELITTRIGCKNLTSMTINYPFLYTVSKDMEIIKWDINETHKKPKRIKHTKGGNKYFEINTINPQLNHHWQQINCIAASPDGKYIVTGGSDSRLIIWSSENLTCLKVLPTRSSVNSIVFRRNSDQLFAACADLRIRTYSINQFTQLEILYGHQDNISDISALAKETCVSVGSRDKTAMFWKIAEESRLTFRGGDSLEKTNKKKKRHYHQEEEEAETENDESTFYNEGSIDVVSMIDESHFVTGSDNGNVALWSLAKKKPLTTKRLSHGLQPQFTPIQASSESNEELALQQIPKPQPYWITAIHGVPYSDIFITGSFNGTIKIWKLEEPSLRSFKLLGEIKQNNLNGCIVKIDSVEIPNTKKLKIYVLLSKEHKFGRWLGKLPGARNALVNFTVNL",binds
7,"Utp9 (protein, UniProt Q5ADY1 1-445) MKYALNGNKVATLIDRNGKDEIRVYNVDERGDSEVVASIILEDIIDFVWASPTTRKKRTPNGGSKESENQNLLVVLLKESVFVVLSEGSEINRFKIDDQIDKLVKYDENIWAATENSILKVSLDGDVKDKIKVPAFNAISISNKIAFGSTSLQIGKFAKGKFVCEDEIKVVGEIKSILQSKYPVVLTEDNNAYLIKKKVQKLSDAHHIQLLHYREKDYIVAISDNLNFYNDGKLENSISSETALEGVLSVEDSLVVFWSGKNELLFKKIDWSDDEIVIPRGELLMNGTKAHIKVAKPKVYKTDATSLMKKLSGISDHAAIVGLCQSVGDSTVIKEVSKEIGLELFPVISDAVSKDTTNTNLALWFKWIYLIHGKHIAKQDIAPVKEAKTQLESGVKLMSHLIAIQGKLQLLKLQNEMREKNVVRDVTTTIDDDSMVYANGEADII",binds

# Continued, values first:
row,binding,Molecule
1,binds,Utp8 (from UniProt A0A1D8PIX3 1-696)
2,binds,Utp13 (from UniProt A0A1D8PNG5 1-799)
3,binds,Utp18 (from UniProt A0A1D8PRJ5 1-552)
4,binds,"Nan1 (protein, UniProt Q5AFB9 1-839) MPSAISEWSLSMATGGKPLYLPCSQTTASVYSQDGRYVIIALTHQLRVYFISTRQCIKTIDLDLHDLADLKIDVTNGNQVLLFKTSGEILTVNWKDKVSQPIISTIDINKTQSGTSLPLLSVISVKHLFFIIVTGRKEKKKGTPHTRYINYFDRNSESLVPIIEVANSINFATSLDNTKIAFITSGNEIDLFDLSGIFNVDSIENLSDNDIVKETIPFVYRSPVTSIAVSNDSMIAIGTSAGPIQIVYGGLTTPKPQRVLKWHLDQVKGLMFTADNNYLLSGGMEKVLVFWQLETEKKQFLPRLNGVIDKISIDNYKNDYISLQLNVDPLDNNYEILVLSAVDLVSRLSVNTVRPKFAYNIATTLSKTKKKFIKSSSDFDKFKIRYDYTSQFEIHPKTKSMYFPNGALIQSFDLFKNEQNFIQHGAPVLGVGKVRSETKLLDPLVTLLKFTHDGEWMCTFDEFTNTEVDSLLLKNEKQYALKFWKYVGHKENATSGINNNNKTGHWELTTKIIDPHGMNPILAMIPAPTSYFNGLAFLTADDKGGLRIWRPSVPKEQYKTTSARSQQTAWTLRKSRAPSALSSDAVALSWSDDNSLIFLAHECSILTIDSKSFEEIPDFKIPSLSGSRVRSLNMVNNNLIVLSKTRISSFDLITGELTSLVAKVNTTIGAKNLIAIDPIKRLICLALNYYSEENNTLSIKSKILIFKPNQLKPICVQLHEQGVSSIRYFNSSFVFVDLDCRVGTIYSNEEITETIELGLTQEINNMLIAAQATADVINDRNVKTTVGHQNGNKEGEMDIDNSMAYAAKVVDLHTFQPIFQNIEGVQVESLFERIVNVLK"
5,binds,"Dip2 (protein, UniProt Q5A756 1-981) MVKSYNRYDQEKCFGVITSQANIVWLPPSETQSSTSMGRALTSGLEEILIWDIKTGEIMNRMSDGLTPGSSNASTTVPPSPVSYLTYHQETNIIAAGYTDGSIKIWDISSNSVIINFEGHNSSITQLKFDKNGTRLVSGSSDSSIIMWDLIGEVGMFKLKGHKGPITGLELLSEQQNTQQDGDNVDDVDDMDDYLVSVSKDGLIKLWELKSQQCIETHLAHSNECWAMGINPTKDMLITSGNKDQVKVWSLDLSLEDGLKIGERGSFEKTSKSRSNEIAFKSLKSSSSSASLIQLFSIQNADRTMEIFRIRSEDEIKRGITKRTKRLKDKGLDEQEILESLQSSEISMLITPFTTMRTMAKIKSACWTNNIKKLDILMSLTNNSIEYHTIPVPETPKKAQSADLYSVKQHTIDLLGHRFDIRAMDISPQDNKLLATASNGELKIWNTRSYNVIRTFVLEGGYALCCKFLPGGTLIVVGFKNGDLELYDLATSSLVDRVEKAHSAITVGGAAPSNDDSAAIWSLDITPDGKTLVTGGNDKCVKFWNFKVEQDIIPGTNTTVSHLKFVHTQTLELNEDVLCVRISPDAKYLAISLLNNNVQVVFLDTLKLFLTLYGHRLPVLSIDISHDSKLIITSSADKNIKIWGLDFGDCHKSIFAHQDSIMNVRFIGDTHNFFSSGKDGLIKYWDGDKFECIQRLPAHQSEVWCMAISDDGLFMCSTSHDHSIRLWSATDDQVFLEEEKEKELDEIYENKLLDQIDGVDGEDHTNMKDDNDEEIDEATKVSKQTMETLKAGEKLMEALDIGVEDIEANKEYLSLVKQGKQAIKPTPNSILLAFNMTASQYVLNVLSKIRPAQLDDALLVLPFSYSLKLLQFIEIWTNKENITQNVVSISLICKVLFFVISSNSKELISQKDPHLKNQLIKVKEQLRQELSKTSNQLGVNTQGLKFVKKQWKLQHASEFIDEEEQRQYEEKRAIKRTYTTI"
6,binds,"Bud21 (protein, UniProt Q5A7N6 1-219) MVLTRSQTHYKQPIKKKFTDDDFSDEEKVSPSLPVQPEDDYSSEEEEEDDDDDDDSDDAPEEESTSKARSDILSEQKRLQQVEAELKKQEREKRKALDLRNTQQQQMKKSKQKSNPSTAPIELPEFLPDDIASIINQPVEESKPRHIRLDEIEASPKLDKKSLLEEKLRLLKAKKKVAIKKGPVHVKIQSFNSKVVPRSESKIVKNRDKWLHRKSVNRK"
7,binds,"Pwp2 (protein, UniProt Q5A852 1-922) MKSDFKFSNLLGTVYRKGNLVFNQDGTKLLSPVGNRVSCFDLIKSQSFTFDYQHRKNVQCIALNNQNTLMISIDEDGRAILVNFVSRVVLHHFNFKSKVNDIKFSPCGKYFAIAIDRFIQVWKTPDLTEDRQFAPFVRHRIYSGHFDEVLNISWSLDSRFFISTSKDMTAKIFSLNSDEKDVAMTFSGHRDYVINAFFSHDQEIIYTVSKDGALFKWEYTERPKPENEDSDSEDDATDKPMSWRITAKNFFYADGKLKCACFHPQSKLLVVGFTNGEFRLYEIEDFNLIQSLSMGQNAVNTVNINKTGEWLAFGSAKLGQLLVYEWQSESYILKQQGHFDSMNTLCYSPDGSRLVTGSDDGKIKIWDVRSGFCLMTFTEHTSAVTQVQFAKRGQVLFSSSLDGTIRAWDLIRFRNFKTFTATSRVQFNCLAVDPSGEVIVGGSQDTFEIYVWSVQTGQLLDSLTGHEGPISCLTFGKENSILASASWDKTIRIWNIFSRNQTVEPIEIQSDALCLTMRPDCKELAVSTLDGHVTIFDIEDAKQLHLIDGRKDIVNGRYLEDKFIAKNSNRGKYFSTIAYSFDGLTLLAAGNNNSICMYDIENEVLLKRFIVSENMSLDGTLQFLNSSKITDAGTNSDLIDRAGELSDLEDRVDNSLPGSHRGGDPSERRTRPEVRVTAVEFSPTTAAFAAASTEGLLIFSINQELIFDPFDLDVDVTPEATLESLKEKEYLVALVMAFRLNENYLIHRVIESIPLQDIKLVCQDLPVIYVNRVLNFIGELLTKKESPHIEYYLIMVKNLLIQHGRYISSNKFEFQSSMKLLSRFLNKTAKDVINVGKRNDHLLTYLTVSKDLKTASGHSEGEENIEMNEDSEAEDIDIDEDDDDEEGWLGPNGNSVKAANGIVFSGPADSSDEEDEDELIEV"
8,binds,"Utp15 (protein, UniProt Q59Y40 1-423) MSSTKQDLPQARAPTLPSKTTPEQRYWRSYITPQLIKENHPITSIEFNPTTPNDFAIASATKIQVFSSKTRQVIKTFSRFKDVVYSGNYRYDGKLLVASDASGLVSIYDSYQPRNLLVSLTPSSHPTHVAKFHPTIGNQLITGSDDRMLRVYDISQTSNGPIIQFDNIDHEDYIRSVNFIPGDSNLIVTGCYDGNVRILDVRDPHRVVAKFDQENPVEDILAVSSNTLVSAGGPYVKIWDLNRMSQIHQLNNFNKSTTCLSNTHTNGLMVGSLDSTIKVFDYTSTNWQVQFGWKFGSGVLSCGVSPINQKHFVAGLTSGLISIRTKKTEPKVKQGIKNDVSGGYARMMKGRDYTGEEEDHIIESSKIITNKTNKSVNELMSSYKKYLGASGSIDDIKPNDLKQEISQCLKAKEICGMLELLGV"
